PubChem BioAssay AID686943 – Drosophila RNAi Screening Center – 2013

Assay: 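Fly genes whose loss alters ERK activation after insulin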 (primary screen)
Cells: Drosophila S2R+ haemocyte-like cells expressing YFP-tagged ERK (Rolled)
Reagent: long dsRNA against Drosophila genes
Conditions: insulin stimulation versus unstimulated cells; dose and duration not given
Read-out: 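Antibody staining for doubly phosphorylated ERK divided by ERK-YFP signal, as plate z-scores, in insulin-treated and untreated cells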
Reading the numbers: replicate 1, z-score of dpERK with insulin and replicate 2, z-score of dpERK with insulin: higher = more active ERK per ERK-YFP after insulin; replicate 1, z-score of dpERK under basal conditions: higher = more basal active ERK per ERK-YFP; replicate 1, z-score of ERK-YFP with insulin: higher = more YFP-tagged ERK signal
The deposit covers about 23,000 reagents; shown is an unselected part of those with a known target gene and a result. 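Extra replicates exist only for a retested subset of genes; insulin dose and duration not given; both raised and lowered dpERK matter.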 The numbers tell different reagents against one gene apart. Names joined by + are all predicted targets of the reagent. Reagent sequences are not shown. The record does not give: the amount of reagent, the time to read-out.

| Gene | reagent no. | replicate 1, z-score of dpERK with insulin | replicate 2, z-score of dpERK with insulin | replicate 1, z-score of dpERK under basal conditions | replicate 1, z-score of ERK-YFP with insulin |
| --- | --- | --- | --- | --- | --- |
| CG3634 | 1 | 0.8 | 0.45 | 1.22 | 0.56 |
| Grik | 1 | -0.39 | -2.09 | -0.37 | 0.18 |
| Grik | 2 | 0.35 | 0.11 | 1.24 | -0.44 |
| CG9044 | 1 | -0.13 | 0.8 | -0.04 | -0.27 |
| RpS5a (Ribosomal protein S5a) | 1 | -0.5 | -0.65 | -1.95 | -2.47 |
| sty (sprouty) | 1 | 1.11 | 0.05 | -0.47 | 0.05 |
| Csl4 | 1 | 0.01 | 0.68 | 1.04 | -0.04 |
| Csl4 | 2 | -0.2 | -0.6 | 1.58 | 0.66 |
| CG42245 + MEP-1 | 1 | -0.65 | -0.68 | -0.62 | 0.26 |
| CG42245 + MEP-1 | 2 | 1.39 | 0.27 | -0.34 | 0.42 |
| CG42245 + MEP-1 | 3 | -2.03 | -2.63 | 4.95 | -0.62 |
| D1 (D1 chromosomal protein) | 1 | -0.57 | -0.17 | -0.6 | -0.09 |
| Tk (Tachykinin) | 1 | 0.94 | 1.14 | 1.45 | -0.54 |
| Tk (Tachykinin) | 2 | -0.13 | 0.1 | 1.69 | 0.21 |
| bs (blistered) | 1 | -5.25 | 0.4 | 0.48 | -5.1 |
| BaraC (Baramicin C) | 1 | -2.01 | -1.04 | -1.26 | 0.84 |
| FucTB (alpha1,3-fucosyltransferase B) | 1 | -0.22 | 0.15 | -0.73 | 0.3 |
| MRP (Multidrug-Resistance like Protein 1) | 1 | 0.73 | 0.91 | 0.62 | 0.45 |
| Iswi (Imitation SWI) | 1 | -0.37 | -0.91 | -2.9 | -1.64 |
| CG15461 | 1 | 0.31 | 0.28 | 0.25 | -0.44 |
| CG11726 | 1 | 0.17 | 0.28 | -0.78 | -0.73 |
| Nup188 (Nucleoporin 188kDa) | 1 | -0.28 | -0.53 | 0.06 | -1.22 |
| CG31668 | 1 | -0.19 | -0.55 | -1.14 | 1.35 |
| CG33695 + cana | 1 | -1.04 | -1.31 | -2.07 | 0.99 |
| CG33695 + cana | 2 | 0.77 | 0.34 | 0.91 | -0.83 |
| Gat (GABA transporter) | 1 | -0.97 | -0.15 | 0.13 | 0.66 |
| CG6961 + CG18259 | 1 | 0.45 | 0.29 | 0.81 | -0.49 |
| CG6961 + CG18259 | 2 | 0.6 | -0.06 | -0.91 | -0.49 |
| Hyccin | 1 | 0.02 | -0.09 | -0.64 | 0.15 |
| mrn (marionette) | 1 | 0.32 | -0.27 | -0.66 | 2.27 |
| CG31677 | 1 | -0.45 | -0.3 | -0.54 | 0.5 |
| Gpb5 (Glycoprotein hormone beta 5) | 1 | 0.21 | 0.05 | -1.85 | 0.2 |
| RunxB (Runt related B) | 1 | 1.41 | -0.55 | 0.24 | 0.06 |
| RunxB (Runt related B) | 2 | 0.92 | 0.4 | 0 | 0.41 |
| RunxB (Runt related B) | 3 | -7.9 | -3.87 | -2.54 | -0.67 |
| CG13251 | 1 | 0.08 | -0.76 | -0.53 | -0.31 |
| mey (morpheyus) | 1 | -1.06 | -0.42 | 0.08 | 0.52 |
| nanos | 1 | 0.33 | 0.53 | 0.55 | 0.61 |
| CG30280 | 1 | 0.1 | 0.3 | -0.68 | 0.54 |
| CG18336 | 1 | 0.22 | -0.48 | -0.14 | 0.17 |
| CG5435 | 1 | -0.4 | 0.23 | -0.98 | 0.04 |
| CG7386 | 1 | 0.08 | 0.28 | – | 0.13 |
| Prp19 (Pre-RNA processing factor 19) | 1 | 0.94 | 0.21 | 0.17 | 0.03 |
| CG7943 | 1 | 0.94 | -0.07 | -0.87 | -0.88 |
| CG31680 | 1 | -1.04 | -0.41 | -0.46 | 0.3 |
| Tim13 | 1 | -0.05 | 0.48 | -0.24 | 0.78 |
| pst (pastrel) | 1 | -0.64 | -2.25 | -1.68 | 0.04 |
| ksr (kinase suppressor of ras) | 1 | -8.19 | -5.9 | -1.62 | 0.63 |
| msps (mini spindles) | 1 | -0.52 | -0.46 | 0.45 | -0.42 |
| CG6403 | 1 | 0.71 | 0.09 | -0.2 | -0.02 |
| CG30458 | 1 | 1.84 | 0.36 | 0.35 | -0.47 |
| CG9992 | 1 | 0.88 | -0.09 | -0.06 | 0.25 |
| CG9992 | 2 | -0.34 | -0.2 | 0.06 | 0.82 |
| Jarid2 (Jumonji, AT rich interactive domain 2) | 1 | -0.23 | -0.22 | 0.61 | 0 |
| CG14490 | 1 | 0.41 | 0.38 | 0.42 | -0.2 |
| CG9452 | 1 | 1.05 | 0.61 | 0.93 | -0.38 |
| CG4768 | 1 | 0.29 | 0.54 | 1.04 | 0.41 |
| CG2617 | 1 | 0.55 | 0.19 | -0.01 | 0.51 |
| CG8765 | 1 | -0.13 | -0.78 | -1.72 | -0.63 |
| CG3117 | 1 | 0.72 | -0.31 | 0.4 | -0.89 |
| mGluR (metabotropic Glutamate Receptor) | 1 | -0.01 | -0.75 | -1.07 | -0.23 |
| Lsm11 | 1 | 0.22 | -0.32 | 1.06 | -0.27 |
| PIG-U (Phosphatidylinositol glycan anchor biosynthesis class U) | 1 | -0.55 | 0.51 | -0.34 | 1.35 |
| mag (magro) | 1 | 0.2 | -0.08 | 0.43 | 0.28 |
| Bet5 (Blocked early in transport 5) | 1 | -0.03 | 1.08 | 1.74 | 0.25 |
| pdm3 (pou domain motif 3) | 1 | 0.07 | 0.53 | -0.55 | 0.09 |
| pdm3 (pou domain motif 3) | 2 | 0.61 | -0.05 | 0.86 | 0.2 |
| pdm3 (pou domain motif 3) | 3 | -0.43 | -0.32 | -0.52 | 0.32 |
| CG31675 | 1 | 0.03 | -0.41 | -0.65 | -0.15 |
| CG31019 | 1 | -0.57 | -0.19 | -0.89 | 0.89 |
| CR31054 (pseudo) | 1 | 1.98 | -0.23 | 0.67 | -0.18 |
| rictor (rapamycin-insensitive companion of Tor) | 1 | 0.72 | 1.16 | 0.1 | -0.18 |
| CG33061 | 1 | 0.28 | -0.82 | 1.15 | -0.46 |
| CG33061 | 2 | 0.25 | 0.44 | -0.15 | -0.59 |
